The values that follow come from patent US11167015B2, “Arginine and its use as a T cell modulator” (INSTITUTE FOR RESEARCH IN BIOMEDICINE, priority 2016, dated 2021).

One test relates to human naïve CD4+ T cells. Briefly: kinetic metabolome analysis of activated T cells. The format is cell-based. The note with it: added to the culture medium at the same concentration as L-arginine (3 mM).
Another test relates to activated CD4+ T cells. Briefly: IL-2 withdrawal assay and assessment of cell viability, CD4+ T cells. The format is cell-based, human. The settings on record: metabolites 3 mM, except for spermidine 0.1 mM; 5 days after IL-2 withdrawal. On the procedure: Naïve CD4 T cells were activated with plate-bound CD3 and CD28 antibodies. 48 h after activation IL-2 was added to culture media (500 U ml^−1). After a further 3 days of culturing, cells were washed, counted and equal cell numbers were plated in medium devoid of IL-2. The withdrawal medium was no longer supplemented with e.g. L-arginine. Cell viability was assessed with annexin V.

SMILES strings stand for the structures.

For `NCCC[C@H](N)C(=O)O` [L-ornithine, reference compound], the effects on metabolism entry in the test on human naïve CD4+ T cells is recorded as “only had minor effects”. Besides, the “survival of activated CD4+ T cells in the absence of exogenous cytokines” value with activated CD4+ T cells was “had no effect”.
